Assay results published in US20070196421A1, “Soft tissue implants and drug combination compositions, and use thereof” (priority 2005, published 2007).
At least one compound was matched to its structure with a doubt left. Some of these results come from one statement about several compounds together.

Legend:
collagenase mRNA = assay: Effect of other anti-microtubule agents on IL-1 induced collagenase expression in primary chondrocytes; format: cell-based, calf; settings: chondrocytes pre-incubated 6 hours, IL-1 20 ng/ml 18 hours
[1] = test system: carrageenan-induced paw edema; assay: Rat carrageenan-induced paw edema model: paw swelling; format: in vivo; settings: 0.01, 0.03 or 0.1 mg/kg alone
Procedure: A dose-range finding study was performed to determine the anti-inflammatory activity of various ratios of methyl prednisolone acetate and amoxapine in a rat carrageenan-induced paw edema model. […] The molar ratio of methyl prednisolone acetate to amoxapine ranged from 1:1 to 1:300, using total doses of methyl prednisolone acetate of 0.01, 0.03 or 0.1 mg/kg.
The test agent (a combination of methyl prednisolone acetate and amoxapine), vehicle control, or reference agents (methyl prednisolone acetate, amoxapine, or Depo-Medrol®) were administered in the left hind foot pad of rats. After 60 minutes, paw edema was induced by injection of 100 μl of 1% carrageenan in the same foot pad. The paw volume was measured with a water displacement plethysmometer immediately prior to test agent injection (T−1h), at the time of carrageenan injection (T0h), and at T6h. Animals were euthanized by carbon dioxide inhalation. Paw tissue samples were collected and flash frozen in liquid nitrogen. Samples were assayed for TNF-α by enzyme-linked immunoassay (ELISA).

Structure (SMILES)	concentration that prevented IL-1-induced collagenase expression (collagenase mRNA) [nM]	paw edema following treatment, alone, across doses [1]
CCOC(=O)CN [glycine ethyl ester]	≥ 100	
N#CC1=C(N)Oc2c(ccc3ccccc23)C1c1cccc([N+](=O)[O-])c1 (stereo not drawn) [LY290181]	≥ 100	
CC(=O)OCC(=O)[C@@]1(O)CC[C@H]2[C@@H]3C[C@H](C)C4=CC(=O)C=C[C@]4(C)[C@H]3[C@@H](O)C[C@@]21C [methyl prednisolone acetate, methylprednisolone acetate]		dose-dependent reduction
